Results are given in words; binding and its absence hold for the method and conditions named. In cells and extracts the contact can be indirect. These calls come from enrichment with a bait or labelling near it, and not all partners need be listed. For some assays here: A no says only that the protein was not detected with the bait.
Legend:
Test in all cases: affinity purification with mass spectrometry; GFP-coated agarose beads (control: agarose beads) on 1 mg nuclear extract of HeLa cells expressing GFP-tagged UTX (1 µg/mL doxycycline, 48 h); overnight at 4 °C in 20 mM Hepes-KOH pH 7.9, 300 mM NaCl, 20% glycerol, 0.1% NP-40; three replicates each; label-free qMS, 1% FDR
[1] = biological target: UTX isoform Δ14, the canonical isoform (GFP-tagged) (human) (UniProt O15550)
[2] = biological target: UTX isoform Δ13 (GFP-tagged) (human)
[3] = biological target: UTX isoform Δ14Δ16 (GFP-tagged) (human)
[4] = biological target: UTX long isoform (GFP-tagged) (human)
[5] = biological target: UTX isoform Δ16 (GFP-tagged) (human)

Chains of the proteins cited; added tags and fusions are not shown. Lines headed by an entry give the natural chain unless they say otherwise; changes in a name come on top.
UniProt O15550: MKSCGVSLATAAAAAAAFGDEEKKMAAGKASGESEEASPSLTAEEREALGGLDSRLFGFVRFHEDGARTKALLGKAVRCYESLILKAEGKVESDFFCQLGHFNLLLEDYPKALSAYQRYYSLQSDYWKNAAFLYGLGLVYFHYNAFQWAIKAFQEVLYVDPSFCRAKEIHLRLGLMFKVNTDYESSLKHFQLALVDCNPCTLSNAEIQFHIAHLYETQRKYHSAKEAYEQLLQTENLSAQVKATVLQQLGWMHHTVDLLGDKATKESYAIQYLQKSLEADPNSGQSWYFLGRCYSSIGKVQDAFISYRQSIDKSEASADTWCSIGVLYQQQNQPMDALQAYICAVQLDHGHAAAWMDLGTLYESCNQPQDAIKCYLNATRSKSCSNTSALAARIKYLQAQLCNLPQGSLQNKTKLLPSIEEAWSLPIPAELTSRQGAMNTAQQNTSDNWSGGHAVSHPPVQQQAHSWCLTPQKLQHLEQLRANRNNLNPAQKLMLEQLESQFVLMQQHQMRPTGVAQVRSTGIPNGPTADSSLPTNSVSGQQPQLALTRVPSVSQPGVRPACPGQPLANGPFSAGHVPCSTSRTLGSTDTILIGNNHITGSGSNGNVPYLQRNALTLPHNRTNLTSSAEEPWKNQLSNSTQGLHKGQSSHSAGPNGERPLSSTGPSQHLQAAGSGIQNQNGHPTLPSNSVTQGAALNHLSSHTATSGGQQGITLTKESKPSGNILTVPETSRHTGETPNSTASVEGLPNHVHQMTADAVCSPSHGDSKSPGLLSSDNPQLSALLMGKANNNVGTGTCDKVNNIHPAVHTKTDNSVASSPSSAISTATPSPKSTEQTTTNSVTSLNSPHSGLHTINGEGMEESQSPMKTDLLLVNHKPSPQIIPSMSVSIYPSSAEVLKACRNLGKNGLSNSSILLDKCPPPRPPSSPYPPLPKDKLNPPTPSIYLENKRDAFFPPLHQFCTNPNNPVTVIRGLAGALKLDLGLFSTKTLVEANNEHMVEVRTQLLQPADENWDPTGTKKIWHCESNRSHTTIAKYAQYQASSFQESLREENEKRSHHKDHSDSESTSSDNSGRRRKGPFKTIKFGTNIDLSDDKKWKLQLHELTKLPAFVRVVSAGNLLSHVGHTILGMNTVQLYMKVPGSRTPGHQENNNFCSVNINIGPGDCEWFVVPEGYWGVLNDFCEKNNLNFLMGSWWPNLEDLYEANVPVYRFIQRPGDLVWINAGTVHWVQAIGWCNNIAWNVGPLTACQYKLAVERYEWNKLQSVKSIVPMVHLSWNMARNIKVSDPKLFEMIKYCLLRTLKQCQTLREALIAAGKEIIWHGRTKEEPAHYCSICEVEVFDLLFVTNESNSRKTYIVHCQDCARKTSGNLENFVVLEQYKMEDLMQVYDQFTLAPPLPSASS
UniProt Q76L83: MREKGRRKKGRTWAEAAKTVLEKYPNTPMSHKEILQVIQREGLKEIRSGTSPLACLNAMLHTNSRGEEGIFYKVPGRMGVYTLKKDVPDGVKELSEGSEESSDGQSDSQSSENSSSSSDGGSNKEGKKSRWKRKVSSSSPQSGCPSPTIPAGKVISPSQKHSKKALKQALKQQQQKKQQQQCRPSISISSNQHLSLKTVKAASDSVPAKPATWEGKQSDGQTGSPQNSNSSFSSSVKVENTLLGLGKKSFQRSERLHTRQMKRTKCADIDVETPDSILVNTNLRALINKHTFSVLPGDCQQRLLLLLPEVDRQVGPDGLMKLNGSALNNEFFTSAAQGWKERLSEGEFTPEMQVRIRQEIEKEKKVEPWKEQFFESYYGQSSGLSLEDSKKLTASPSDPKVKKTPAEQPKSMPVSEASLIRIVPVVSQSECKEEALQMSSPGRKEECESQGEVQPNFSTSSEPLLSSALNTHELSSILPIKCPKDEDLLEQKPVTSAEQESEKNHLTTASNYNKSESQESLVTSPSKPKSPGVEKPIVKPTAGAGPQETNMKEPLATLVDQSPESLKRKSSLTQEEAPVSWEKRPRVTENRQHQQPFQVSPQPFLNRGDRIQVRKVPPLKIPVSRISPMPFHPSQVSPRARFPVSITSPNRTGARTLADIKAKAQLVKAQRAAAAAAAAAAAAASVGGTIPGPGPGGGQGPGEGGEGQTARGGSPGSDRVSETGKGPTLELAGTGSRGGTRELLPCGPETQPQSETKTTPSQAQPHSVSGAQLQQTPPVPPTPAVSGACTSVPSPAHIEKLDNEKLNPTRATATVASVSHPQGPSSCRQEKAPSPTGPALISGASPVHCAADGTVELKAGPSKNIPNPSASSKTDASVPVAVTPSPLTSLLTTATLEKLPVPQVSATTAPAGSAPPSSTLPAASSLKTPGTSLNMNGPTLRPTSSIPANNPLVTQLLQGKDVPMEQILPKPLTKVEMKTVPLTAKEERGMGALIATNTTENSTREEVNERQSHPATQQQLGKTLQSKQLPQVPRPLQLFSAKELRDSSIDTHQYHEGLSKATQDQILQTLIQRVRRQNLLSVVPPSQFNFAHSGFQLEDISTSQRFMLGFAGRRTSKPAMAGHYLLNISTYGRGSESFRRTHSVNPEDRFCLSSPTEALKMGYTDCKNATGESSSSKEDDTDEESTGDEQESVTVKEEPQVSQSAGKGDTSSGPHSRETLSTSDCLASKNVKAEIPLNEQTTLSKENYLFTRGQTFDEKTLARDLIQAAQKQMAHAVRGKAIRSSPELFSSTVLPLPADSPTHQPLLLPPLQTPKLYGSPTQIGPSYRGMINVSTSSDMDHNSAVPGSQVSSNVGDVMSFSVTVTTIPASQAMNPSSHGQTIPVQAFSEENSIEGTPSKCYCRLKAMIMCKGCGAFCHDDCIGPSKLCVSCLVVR
UniProt Q92560: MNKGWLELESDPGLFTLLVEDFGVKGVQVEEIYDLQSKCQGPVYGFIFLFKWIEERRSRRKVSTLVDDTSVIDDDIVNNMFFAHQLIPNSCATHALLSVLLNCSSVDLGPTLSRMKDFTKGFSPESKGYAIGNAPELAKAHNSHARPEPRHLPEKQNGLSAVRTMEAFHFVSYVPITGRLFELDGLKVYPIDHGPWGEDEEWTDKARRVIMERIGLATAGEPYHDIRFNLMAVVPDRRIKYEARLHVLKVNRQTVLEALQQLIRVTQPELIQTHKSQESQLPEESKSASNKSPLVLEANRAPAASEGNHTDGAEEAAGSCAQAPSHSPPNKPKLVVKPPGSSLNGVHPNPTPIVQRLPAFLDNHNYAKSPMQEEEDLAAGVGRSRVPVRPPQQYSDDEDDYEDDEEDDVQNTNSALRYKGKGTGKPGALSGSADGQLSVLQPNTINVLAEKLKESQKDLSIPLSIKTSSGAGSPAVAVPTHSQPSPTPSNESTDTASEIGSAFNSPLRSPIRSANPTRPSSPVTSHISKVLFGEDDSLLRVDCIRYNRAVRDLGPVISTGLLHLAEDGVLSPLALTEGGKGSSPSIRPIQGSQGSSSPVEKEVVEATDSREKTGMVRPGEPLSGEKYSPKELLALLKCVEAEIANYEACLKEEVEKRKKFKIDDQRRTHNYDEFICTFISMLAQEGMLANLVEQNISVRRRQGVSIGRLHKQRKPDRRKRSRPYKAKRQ
UniProt Q9BTK6: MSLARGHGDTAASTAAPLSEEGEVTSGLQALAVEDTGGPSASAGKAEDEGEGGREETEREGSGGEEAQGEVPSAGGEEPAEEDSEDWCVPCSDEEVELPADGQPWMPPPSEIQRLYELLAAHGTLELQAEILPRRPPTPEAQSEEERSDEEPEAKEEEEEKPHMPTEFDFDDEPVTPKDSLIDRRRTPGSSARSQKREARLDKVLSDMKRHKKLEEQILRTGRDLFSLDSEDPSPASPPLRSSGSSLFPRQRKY
UniProt Q92769: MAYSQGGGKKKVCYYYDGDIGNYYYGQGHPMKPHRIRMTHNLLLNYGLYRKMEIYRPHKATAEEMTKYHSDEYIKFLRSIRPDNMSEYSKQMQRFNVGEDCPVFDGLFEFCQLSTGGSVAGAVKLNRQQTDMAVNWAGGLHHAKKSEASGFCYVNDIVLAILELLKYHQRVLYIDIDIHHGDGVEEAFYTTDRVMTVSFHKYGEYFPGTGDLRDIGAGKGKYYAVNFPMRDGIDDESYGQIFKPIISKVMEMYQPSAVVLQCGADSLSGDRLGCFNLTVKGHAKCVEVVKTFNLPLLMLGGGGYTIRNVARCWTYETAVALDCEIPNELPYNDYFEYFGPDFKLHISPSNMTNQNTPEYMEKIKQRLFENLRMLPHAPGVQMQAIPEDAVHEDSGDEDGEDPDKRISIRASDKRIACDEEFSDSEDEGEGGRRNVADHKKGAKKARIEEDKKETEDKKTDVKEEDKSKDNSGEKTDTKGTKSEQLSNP
UniProt Q6ZW49: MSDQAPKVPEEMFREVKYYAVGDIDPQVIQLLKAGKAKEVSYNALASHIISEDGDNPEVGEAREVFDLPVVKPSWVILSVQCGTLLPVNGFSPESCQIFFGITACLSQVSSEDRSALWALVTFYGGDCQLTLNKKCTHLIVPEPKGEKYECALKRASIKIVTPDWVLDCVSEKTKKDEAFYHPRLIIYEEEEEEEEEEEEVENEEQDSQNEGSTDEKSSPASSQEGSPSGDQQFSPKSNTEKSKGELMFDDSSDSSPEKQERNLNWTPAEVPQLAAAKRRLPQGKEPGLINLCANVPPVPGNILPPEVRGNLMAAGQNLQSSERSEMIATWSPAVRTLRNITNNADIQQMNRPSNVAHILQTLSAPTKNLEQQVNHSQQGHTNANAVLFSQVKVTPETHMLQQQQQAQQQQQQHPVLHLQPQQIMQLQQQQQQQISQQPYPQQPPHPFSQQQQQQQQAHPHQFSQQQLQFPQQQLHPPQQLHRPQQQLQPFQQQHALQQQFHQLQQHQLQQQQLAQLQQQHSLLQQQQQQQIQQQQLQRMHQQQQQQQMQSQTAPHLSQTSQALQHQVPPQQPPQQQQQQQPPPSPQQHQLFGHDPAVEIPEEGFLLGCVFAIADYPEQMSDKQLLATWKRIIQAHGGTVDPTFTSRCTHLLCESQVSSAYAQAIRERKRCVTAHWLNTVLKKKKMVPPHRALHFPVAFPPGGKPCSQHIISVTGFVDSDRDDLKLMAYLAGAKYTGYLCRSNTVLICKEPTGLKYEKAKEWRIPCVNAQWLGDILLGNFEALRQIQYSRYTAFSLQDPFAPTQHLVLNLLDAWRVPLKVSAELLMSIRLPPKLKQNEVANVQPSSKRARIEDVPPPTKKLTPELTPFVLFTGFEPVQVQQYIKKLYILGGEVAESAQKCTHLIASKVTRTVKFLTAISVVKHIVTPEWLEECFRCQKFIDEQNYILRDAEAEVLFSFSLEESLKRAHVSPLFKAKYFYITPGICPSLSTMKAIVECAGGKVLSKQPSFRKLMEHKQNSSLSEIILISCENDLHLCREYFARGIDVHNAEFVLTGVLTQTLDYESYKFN
UniProt Q13547: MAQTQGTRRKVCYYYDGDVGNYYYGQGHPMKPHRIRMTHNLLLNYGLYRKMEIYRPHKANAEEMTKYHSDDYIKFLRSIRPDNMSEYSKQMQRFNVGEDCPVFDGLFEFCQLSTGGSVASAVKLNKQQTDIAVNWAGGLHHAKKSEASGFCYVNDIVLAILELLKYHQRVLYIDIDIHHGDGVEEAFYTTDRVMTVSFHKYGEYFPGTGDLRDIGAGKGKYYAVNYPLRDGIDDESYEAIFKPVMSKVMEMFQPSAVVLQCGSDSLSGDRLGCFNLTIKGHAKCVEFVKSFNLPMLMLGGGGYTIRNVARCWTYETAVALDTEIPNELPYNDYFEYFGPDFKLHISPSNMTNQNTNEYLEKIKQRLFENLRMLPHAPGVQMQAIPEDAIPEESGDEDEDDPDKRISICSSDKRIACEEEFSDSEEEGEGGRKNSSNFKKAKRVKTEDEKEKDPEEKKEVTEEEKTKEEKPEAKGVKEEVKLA

binding [1]	binding [2]	binding [3]	binding [4]	binding [5]	Molecule
binds					ASXL2 (from UniProt Q76L83 1-1435)
no binding					BAP1 (from UniProt Q92560 1-729)
binds					PAGR1 (from UniProt Q9BTK6 1-254)
binds					HDAC2 (from UniProt Q92769 1-488)

Continued, molecule first:

Molecule	binding [1]	binding [2]	binding [3]	binding [4]	binding [5]
PAXIP1 (from UniProt Q6ZW49 1-1069)	binds				
HDAC1 (from UniProt Q13547 1-482)	binds				
ELMSAN1 (protein, UniProt Q6PJG2 1-1045) MNLQAQPKAQNKRKRCLFGGQEPAPKEQPPPLQPPQQSIRVKEEQYLGHEGPGGAVSTSQPVELPPPSSLALLNSVVYGPERTSAAMLSQQVASVKWPNSVMAPGRGPERGGGGGVSDSSWQQQPGQPPPHSTWNCHSLSLYSATKGSPHPGVGVPTYYNHPEALKREKAGGPQLDRYVRPMMPQKVQLEVGRPQAPLNSFHAAKKPPNQSLPLQPFQLAFGHQVNRQVFRQGPPPPNPVAAFPPQKQQQQQQPQQQQQQQQAALPQMPLFENFYSMPQQPSQQPQDFGLQPAGPLGQSHLAHHSMAPYPFPPNPDMNPELRKALLQDSAPQPALPQVQIPFPRRSRRLSKEGILPPSALDGAGTQPGQEATGNLFLHHWPLQQPPPGSLGQPHPEALGFPLELRESQLLPDGERLAPNGREREAPAMGSEEGMRAVSTGDCGQVLRGGVIQSTRRRRRASQEANLLTLAQKAVELASLQNAKDGSGSEEKRKSVLASTTKCGVEFSEPSLATKRAREDSGMVPLIIPVSVPVRTVDPTEAAQAGGLDEDGKGPEQNPAEHKPSVIVTRRRSTRIPGTDAQAQAEDMNVKLEGEPSVRKPKQRPRPEPLIIPTKAGTFIAPPVYSNITPYQSHLRSPVRLADHPSERSFELPPYTPPPILSPVREGSGLYFNAIISTSTIPAPPPITPKSAHRTLLRTNSAEVTPPVLSVMGEATPVSIEPRINVGSRFQAEIPLMRDRALAAADPHKADLVWQPWEDLESSREKQRQVEDLLTAACSSIFPGAGTNQELALHCLHESRGDILETLNKLLLKKPLRPHNHPLATYHYTGSDQWKMAERKLFNKGIAIYKKDFFLVQKLIQTKTVAQCVEFYYTYKKQVKIGRNGTLTFGDVDTSDEKSAQEEVEVDIKTSQKFPRVPLPRRESPSEERLEPKREVKEPRKEGEEEVPEIQEKEEQEEGRERSRRAAAVKATQTLQANESASDILILRSHESNAPGSAGGQASEKPREGTGKSRRALPFSEKKKKTETFSKTQNQENTFPCKKCGR	binds	binds	no binding	binds	binds
KDM1B (protein, UniProt Q8NB78 1-822) MATPRGRTKKKASFDHSPDSLPLRSSGRQAKKKATETTDEDEDGGSEKKYRKCEKAGCTATCPVCFASASERCAKNGYTSRWYHLSCGEHFCNECFDHYYRSHKDGYDKYTTWKKIWTSNGKTEPSPKAFMADQQLPYWVQCTKPECRKWRQLTKEIQLTPQIAKTYRCGMKPNTAIKPETSDHCSLPEDLRVLEVSNHWWYSMLILPPLLKDSVAAPLLSAYYPDCVGMSPSCTSTNRAAATGNASPGKLEHSKAALSVHVPGMNRYFQPFYQPNECGKALCVRPDVMELDELYEFPEYSRDPTMYLALRNLILALWYTNCKEALTPQKCIPHIIVRGLVRIRCVQEVERILYFMTRKGLINTGVLSVGADQYLLPKDYHNKSVIIIGAGPAGLAAARQLHNFGIKVTVLEAKDRIGGRVWDDKSFKGVTVGRGAQIVNGCINNPVALMCEQLGISMHKFGERCDLIQEGGRITDPTIDKRMDFHFNALLDVVSEWRKDKTQLQDVPLGEKIEEIYKAFIKESGIQFSELEGQVLQFHLSNLEYACGSNLHQVSARSWDHNEFFAQFAGDHTLLTPGYSVIIEKLAEGLDIQLKSPVQCIDYSGDEVQVTTTDGTGYSAQKVLVTVPLALLQKGAIQFNPPLSEKKMKAINSLGAGIIEKIALQFPYRFWDSKVQGADFFGHVPPSASKRGLFAVFYDMDPQKKHSVLMSVIAGEAVASVRTLDDKQVLQQCMATLRELFKEQEVPDPTKYFVTRWSTDPWIQMAYSFVKTGGSGEAYDIIAEDIQGTVFFAGEATNRHFPQTVTGAYLSGVREASKIAAF	binds	binds	no binding	binds	binds
DNTTIP (protein, UniProt Q9H147 1-329) MGATGDAEQPRGPSGAERGGLELGDAGAAGQLVLTNPWNIMIKHRQVQRRGRRSQMTTSFTDPAISMDLLRAVLQPSINEEIQTVFNKYMKFFQKAALNVRDNVGEEVDAEQLIQEACRSCLEQAKLLFSDGEKVIPRLTHELPGIKRGRQAEEECAHRGSPLPKKRKGRPPGHILSSDRAAAGMVWKPKSCEPIRREGPKWDPARLNESTTFVLGSRANKALGMGGTRGRIYIKHPHLFKYAADPQDKHWLAEQHHMRATGGKMAYLLIEEDIRDLAASDDYRGCLDLKLEELKSFVLPSWMVEKMRKYMETLRTENEHRAVEAPPQT	binds	binds	no binding	binds	binds
MBD6 (protein, UniProt Q96DN6 1-1003) MNGGNESSGADRAGGPVATSVPIGWQRCVREGAVLYISPSGTELSSLEQTRSYLLSDGTCKCGLECPLNVPKVFNFDPLAPVTPGGAGVGPASEEDMTKLCNHRRKAVAMATLYRSMETTCSHSSPGEGASPQMFHTVSPGPPSARPPCRVPPTTPLNGGPGSLPPEPPSVSQAFPTLAGPGGLFPPRLADPVPSGGSSSPRFLPRGNAPSPAPPPPPAISLNAPSYNWGAALRSSLVPSDLGSPPAPHASSSPPSDPPLFHCSDALTPPPLPPSNNLPAHPGPASQPPVSSATMHLPLVLGPLGGAPTVEGPGAPPFLASSLLSAAAKAQHPPLPPPSTLQGRRPRAQAPSASHSSSLRPSQRRPRRPPTVFRLLEGRGPQTPRRSRPRAPAPVPQPFSLPEPSQPILPSVLSLLGLPTPGPSHSDGSFNLLGSDAHLPPPPTLSSGSPPQPRHPIQPSLPGTTSGSLSSVPGAPAPPAASKAPVVPSPVLQSPSEGLGMGAGPACPLPPLAGGEAFPFPSPEQGLALSGAGFPGMLGALPLPLSLGQPPPSPLLNHSLFGVLTGGGGQPPPEPLLPPPGGPGPPLAPGEPEGPSLLVASLLPPPPSDLLPPPSAPPSNLLASFLPLLALGPTAGDGEGSAEGAGGPSGEPFSGLGDLSPLLFPPLSAPPTLIALNSALLAATLDPPSGTPPQPCVLSAPQPGPPTSSVTTATTDPGASSLGKAPSNSGRPPQLLSPLLGASLLGDLSSLTSSPGALPSLLQPPGPLLSGQLGLQLLPGGGAPPPLSEASSPLACLLQSLQIPPEQPEAPCLPPESPASALEPEPARPPLSALAPPHGSPDPPVPELLTGRGSGKRGRRGGGGLRGINGEARPARGRKPGSRREPGRLALKWGTRGGFNGQMERSPRRTHHWQHNGELAEGGAEPKDPPPPGPHSEDLKVPPGVVRKSRRGRRRKYNPTRNSNSSRQDITLEPSPTARAAVPLPPRARPGRPAKNKRRKLAP	binds	binds	no binding	binds	binds
